Experimental findings from paper PMC7337521 are described below.

Chains of the proteins cited; added tags and fusions are not shown.
UniProt P67809: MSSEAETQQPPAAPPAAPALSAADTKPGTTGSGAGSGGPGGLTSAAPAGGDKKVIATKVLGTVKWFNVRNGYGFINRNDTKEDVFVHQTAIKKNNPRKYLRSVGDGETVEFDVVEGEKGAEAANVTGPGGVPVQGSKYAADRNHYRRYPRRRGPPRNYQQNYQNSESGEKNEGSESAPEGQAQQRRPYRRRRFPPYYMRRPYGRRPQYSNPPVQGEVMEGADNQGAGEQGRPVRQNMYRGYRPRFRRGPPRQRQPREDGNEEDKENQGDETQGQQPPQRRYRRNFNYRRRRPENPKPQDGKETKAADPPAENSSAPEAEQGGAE
UniProt Q04637: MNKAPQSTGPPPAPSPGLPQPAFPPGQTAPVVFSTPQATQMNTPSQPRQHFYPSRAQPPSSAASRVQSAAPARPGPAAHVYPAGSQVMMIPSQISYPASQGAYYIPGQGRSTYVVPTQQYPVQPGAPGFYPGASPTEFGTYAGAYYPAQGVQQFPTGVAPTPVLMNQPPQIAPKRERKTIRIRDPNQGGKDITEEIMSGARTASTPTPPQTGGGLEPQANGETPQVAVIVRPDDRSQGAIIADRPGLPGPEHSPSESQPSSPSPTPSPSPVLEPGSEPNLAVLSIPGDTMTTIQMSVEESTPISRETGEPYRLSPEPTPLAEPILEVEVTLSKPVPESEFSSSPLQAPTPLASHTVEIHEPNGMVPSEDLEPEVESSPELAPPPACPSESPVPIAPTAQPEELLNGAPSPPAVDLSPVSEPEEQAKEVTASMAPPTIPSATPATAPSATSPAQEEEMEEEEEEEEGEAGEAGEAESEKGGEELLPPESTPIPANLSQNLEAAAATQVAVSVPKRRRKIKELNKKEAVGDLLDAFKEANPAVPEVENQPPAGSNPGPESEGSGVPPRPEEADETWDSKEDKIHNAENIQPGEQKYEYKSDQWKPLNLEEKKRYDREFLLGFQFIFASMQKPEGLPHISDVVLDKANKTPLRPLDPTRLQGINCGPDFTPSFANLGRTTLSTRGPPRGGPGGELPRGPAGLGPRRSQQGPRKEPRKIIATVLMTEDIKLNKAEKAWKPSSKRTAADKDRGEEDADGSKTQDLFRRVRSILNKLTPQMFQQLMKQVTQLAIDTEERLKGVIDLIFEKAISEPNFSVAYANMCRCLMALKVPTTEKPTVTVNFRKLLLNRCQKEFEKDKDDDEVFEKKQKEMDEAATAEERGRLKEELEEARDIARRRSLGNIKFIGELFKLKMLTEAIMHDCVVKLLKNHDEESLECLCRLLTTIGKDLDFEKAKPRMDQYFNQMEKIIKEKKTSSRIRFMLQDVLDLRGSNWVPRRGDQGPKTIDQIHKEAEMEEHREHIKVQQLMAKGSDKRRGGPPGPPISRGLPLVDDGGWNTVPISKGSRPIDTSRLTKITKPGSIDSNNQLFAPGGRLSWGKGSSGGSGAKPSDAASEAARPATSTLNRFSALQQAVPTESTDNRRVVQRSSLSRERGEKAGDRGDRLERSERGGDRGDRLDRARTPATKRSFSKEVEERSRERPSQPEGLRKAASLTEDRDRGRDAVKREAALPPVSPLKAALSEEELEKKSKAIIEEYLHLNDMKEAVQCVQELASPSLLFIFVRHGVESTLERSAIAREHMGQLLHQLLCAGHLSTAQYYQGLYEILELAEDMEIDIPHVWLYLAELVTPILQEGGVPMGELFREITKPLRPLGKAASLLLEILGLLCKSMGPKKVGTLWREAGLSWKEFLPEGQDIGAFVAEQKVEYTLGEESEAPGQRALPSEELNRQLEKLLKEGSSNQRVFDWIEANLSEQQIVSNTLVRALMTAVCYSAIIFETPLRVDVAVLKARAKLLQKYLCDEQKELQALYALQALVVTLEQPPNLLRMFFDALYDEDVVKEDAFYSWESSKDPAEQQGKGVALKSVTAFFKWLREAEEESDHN

No constants are given. Whether binding was seen depends on the method and setting. In cells and extracts the contact can be indirect. Some entries that bind do so weakly or less than the wild type.

The chains are these.
B1: TIA-1 (protein, UniProt P31483 1-386)
chain: MEDEMPKTLYVGNLSRDVTEALILQLFSQIGPCKNCKMIMDTAGNDPYCFVEFHEHRHAAAALAAMNGRKIMGKEVKVNWATTPSSQKKDTSSSTVVSTQRSQDHFHVFVGDLSPEITTEDIKAAFAPFGRISDARVVKDMATGKSKGYGFVSFFNKWDAENAIQQMGGQWLGGRQIRTNWATRKPPAPKSTYESNTKQLSYDEVVNQSSPSNCTVYCGGVTSGLTEQLMRQTFSPFGQIMEIRVFPDKGYSFVRFNSHESAAHAIVSVNGTTIEGHVVKCYWGKETLDMINPVQQQNQIGYPQPYGQWGQWYGNAQQIGQYMPNGWQVPAYGMYGQAWNQQGFNQTQSSAPWMGPNYGVQPPQGQNGSMLPNQPSGYRVAGYETQ
B2: G3BP2 (protein, UniProt Q9UN86 1-482)
chain: MVMEKPSPLLVGREFVRQYYTLLNKAPEYLHRFYGRNSSYVHGGVDASGKPQEAVYGQNDIHHKVLSLNFSECHTKIRHVDAHATLSDGVVVQVMGLLSNSGQPERKFMQTFVLAPEGSVPNKFYVHNDMFRYEDEVFGDSEPELDEESEDEVEEEQEERQPSPEPVQENANSGYYEAHPVTNGIEEPLEESSHEPEPEPESETKTEELKPQVEEKNLEELEEKSTTPPPAEPVSLPQEPPKAFSWASVTSKNLPPSGTVSSSGIPPHVKAPVSQPRVEAKPEVQSQPPRVREQRPRERPGFPPRGPRPGRGDMEQNDSDNRRIIRYPDSHQLFVGNLPHDIDENELKEFFMSFGNVVELRINTKGVGGKLPNFGFVVFDDSEPVQRILIAKPIMFRGEVRLNVEEKKTRAARERETRGGGDDRRDIRRNDRGPGGPRGIVGGGMMRDRDGRGPPPRGGMAQKLGSGRGTGQMEGRFTGQRR

In this experiment the target is G3BP1 (endogenous) (human (endogenous in PC-3)) (UniProt Q13283). Nature of the experiment: co-IP; pulldown of endogenous G3BP1 from PC-3 cells with anti-G3BP1 antibodies.
For “YB-1 (from UniProt P67809 1-324) (other; other documents disagree on this pair)”, the binding result is “binds”. Turning to eIF4G1 (from UniProt Q04637 1-1599), the binding result was “binds”. Turning to B1, the binding result is on record as “binds”.

As for B2, the binding result is recorded as “binds”.
